# Reference: US20240360175A1 (Centessa Pharmaceuticals (UK) Limited, priority 2021, published 2024)
# Test: general procedure: Fmoc solid-phase peptide synthesis; Fmoc Rink amide AM resin
# Settings: whole synthesis, scale 0.30 mmol, AcOH salt
substance,measurement,value
H2N-(PEG)6-N-Phenethyl-Gly-Asn-Hyp(4-OH)-Ala-Phg-Gly-Ile-Leu-Thr-2-AOC-NH2,isolated mass,51.2 mg
same,isolated yield,10.4%
